In patent US20230025756A1:
These are yes or no findings as the source states them, for the method shown. Some entries that bind do so weakly or less than the wild type.

Amino acid sequences for entries named in this document (tags omitted). A change or cut given only in a name is not applied to a line headed by its entry. Residues count along the entry.
UniProt P20023, residues 21-1033: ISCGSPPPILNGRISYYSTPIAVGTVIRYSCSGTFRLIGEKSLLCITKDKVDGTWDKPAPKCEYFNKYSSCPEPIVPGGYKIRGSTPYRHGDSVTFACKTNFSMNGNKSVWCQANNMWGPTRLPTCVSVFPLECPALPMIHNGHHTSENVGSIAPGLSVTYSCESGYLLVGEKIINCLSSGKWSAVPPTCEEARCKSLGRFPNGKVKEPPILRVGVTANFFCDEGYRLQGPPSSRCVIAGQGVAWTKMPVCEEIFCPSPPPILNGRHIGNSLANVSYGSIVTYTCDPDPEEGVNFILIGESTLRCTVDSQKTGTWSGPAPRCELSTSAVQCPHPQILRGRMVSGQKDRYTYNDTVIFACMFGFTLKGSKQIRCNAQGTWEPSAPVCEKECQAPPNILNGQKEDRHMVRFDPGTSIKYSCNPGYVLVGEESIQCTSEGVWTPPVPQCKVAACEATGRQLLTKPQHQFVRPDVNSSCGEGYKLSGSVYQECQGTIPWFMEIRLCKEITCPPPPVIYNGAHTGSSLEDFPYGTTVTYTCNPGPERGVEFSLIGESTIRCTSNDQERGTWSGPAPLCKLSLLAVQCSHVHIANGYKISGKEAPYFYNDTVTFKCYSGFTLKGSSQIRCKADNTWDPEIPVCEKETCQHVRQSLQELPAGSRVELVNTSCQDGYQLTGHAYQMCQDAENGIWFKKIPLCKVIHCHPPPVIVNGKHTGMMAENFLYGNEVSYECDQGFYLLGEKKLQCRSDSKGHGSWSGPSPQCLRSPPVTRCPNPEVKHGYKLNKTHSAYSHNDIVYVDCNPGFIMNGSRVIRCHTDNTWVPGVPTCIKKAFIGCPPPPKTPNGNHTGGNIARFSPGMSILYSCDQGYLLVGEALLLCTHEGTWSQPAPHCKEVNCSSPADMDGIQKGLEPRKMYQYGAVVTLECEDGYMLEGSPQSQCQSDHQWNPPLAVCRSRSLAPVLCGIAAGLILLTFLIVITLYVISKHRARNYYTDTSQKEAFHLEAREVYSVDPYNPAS
UniProt P17927, residues 42-2039: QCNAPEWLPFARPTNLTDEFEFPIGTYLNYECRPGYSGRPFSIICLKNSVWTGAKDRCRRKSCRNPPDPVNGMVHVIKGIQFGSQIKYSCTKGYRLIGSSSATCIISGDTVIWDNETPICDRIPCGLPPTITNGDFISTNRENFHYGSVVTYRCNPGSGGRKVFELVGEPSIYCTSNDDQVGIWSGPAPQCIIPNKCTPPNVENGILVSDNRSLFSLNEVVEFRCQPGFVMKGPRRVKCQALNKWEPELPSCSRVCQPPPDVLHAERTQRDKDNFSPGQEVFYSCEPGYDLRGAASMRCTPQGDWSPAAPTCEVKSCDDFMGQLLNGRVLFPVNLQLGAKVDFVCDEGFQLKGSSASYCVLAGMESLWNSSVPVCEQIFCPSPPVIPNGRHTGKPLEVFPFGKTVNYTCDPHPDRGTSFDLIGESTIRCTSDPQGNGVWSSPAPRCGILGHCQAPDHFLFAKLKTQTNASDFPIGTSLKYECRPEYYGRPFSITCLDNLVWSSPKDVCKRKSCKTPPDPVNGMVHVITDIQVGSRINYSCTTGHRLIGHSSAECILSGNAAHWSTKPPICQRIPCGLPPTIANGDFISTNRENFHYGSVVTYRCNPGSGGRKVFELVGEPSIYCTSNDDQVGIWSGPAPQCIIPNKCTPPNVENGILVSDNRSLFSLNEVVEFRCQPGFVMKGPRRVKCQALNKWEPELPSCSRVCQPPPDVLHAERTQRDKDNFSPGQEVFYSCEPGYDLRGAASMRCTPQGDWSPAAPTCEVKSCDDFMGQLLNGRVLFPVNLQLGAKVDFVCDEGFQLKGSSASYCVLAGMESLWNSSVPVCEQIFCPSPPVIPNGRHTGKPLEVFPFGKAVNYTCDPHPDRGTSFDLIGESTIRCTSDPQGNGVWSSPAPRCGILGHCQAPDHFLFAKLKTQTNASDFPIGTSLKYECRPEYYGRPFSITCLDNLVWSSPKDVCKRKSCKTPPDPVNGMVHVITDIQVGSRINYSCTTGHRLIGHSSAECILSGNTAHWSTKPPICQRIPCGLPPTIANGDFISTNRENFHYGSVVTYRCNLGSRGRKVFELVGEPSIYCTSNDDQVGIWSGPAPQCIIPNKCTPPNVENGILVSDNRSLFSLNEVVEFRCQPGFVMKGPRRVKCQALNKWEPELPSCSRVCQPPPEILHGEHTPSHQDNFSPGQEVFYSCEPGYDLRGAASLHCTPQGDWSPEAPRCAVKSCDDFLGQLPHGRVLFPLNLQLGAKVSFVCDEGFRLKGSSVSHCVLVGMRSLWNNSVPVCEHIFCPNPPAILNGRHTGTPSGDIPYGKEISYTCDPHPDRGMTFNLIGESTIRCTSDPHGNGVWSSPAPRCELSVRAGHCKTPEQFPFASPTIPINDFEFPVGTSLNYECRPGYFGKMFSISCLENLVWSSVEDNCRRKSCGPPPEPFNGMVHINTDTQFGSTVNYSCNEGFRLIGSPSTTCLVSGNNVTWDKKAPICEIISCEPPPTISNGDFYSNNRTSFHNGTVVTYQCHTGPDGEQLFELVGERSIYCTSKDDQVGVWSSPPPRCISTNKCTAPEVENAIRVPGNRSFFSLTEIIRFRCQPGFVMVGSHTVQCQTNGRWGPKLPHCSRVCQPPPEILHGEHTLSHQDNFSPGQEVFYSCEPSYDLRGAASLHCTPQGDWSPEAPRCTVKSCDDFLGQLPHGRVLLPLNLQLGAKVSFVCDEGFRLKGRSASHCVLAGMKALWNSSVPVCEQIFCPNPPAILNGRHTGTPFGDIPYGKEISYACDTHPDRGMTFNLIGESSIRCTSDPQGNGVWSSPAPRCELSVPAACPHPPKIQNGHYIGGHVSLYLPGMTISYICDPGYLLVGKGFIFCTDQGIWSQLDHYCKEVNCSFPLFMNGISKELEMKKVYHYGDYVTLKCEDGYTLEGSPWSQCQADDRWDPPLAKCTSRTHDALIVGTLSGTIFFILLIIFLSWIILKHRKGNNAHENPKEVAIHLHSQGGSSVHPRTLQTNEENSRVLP
UniProt P01024: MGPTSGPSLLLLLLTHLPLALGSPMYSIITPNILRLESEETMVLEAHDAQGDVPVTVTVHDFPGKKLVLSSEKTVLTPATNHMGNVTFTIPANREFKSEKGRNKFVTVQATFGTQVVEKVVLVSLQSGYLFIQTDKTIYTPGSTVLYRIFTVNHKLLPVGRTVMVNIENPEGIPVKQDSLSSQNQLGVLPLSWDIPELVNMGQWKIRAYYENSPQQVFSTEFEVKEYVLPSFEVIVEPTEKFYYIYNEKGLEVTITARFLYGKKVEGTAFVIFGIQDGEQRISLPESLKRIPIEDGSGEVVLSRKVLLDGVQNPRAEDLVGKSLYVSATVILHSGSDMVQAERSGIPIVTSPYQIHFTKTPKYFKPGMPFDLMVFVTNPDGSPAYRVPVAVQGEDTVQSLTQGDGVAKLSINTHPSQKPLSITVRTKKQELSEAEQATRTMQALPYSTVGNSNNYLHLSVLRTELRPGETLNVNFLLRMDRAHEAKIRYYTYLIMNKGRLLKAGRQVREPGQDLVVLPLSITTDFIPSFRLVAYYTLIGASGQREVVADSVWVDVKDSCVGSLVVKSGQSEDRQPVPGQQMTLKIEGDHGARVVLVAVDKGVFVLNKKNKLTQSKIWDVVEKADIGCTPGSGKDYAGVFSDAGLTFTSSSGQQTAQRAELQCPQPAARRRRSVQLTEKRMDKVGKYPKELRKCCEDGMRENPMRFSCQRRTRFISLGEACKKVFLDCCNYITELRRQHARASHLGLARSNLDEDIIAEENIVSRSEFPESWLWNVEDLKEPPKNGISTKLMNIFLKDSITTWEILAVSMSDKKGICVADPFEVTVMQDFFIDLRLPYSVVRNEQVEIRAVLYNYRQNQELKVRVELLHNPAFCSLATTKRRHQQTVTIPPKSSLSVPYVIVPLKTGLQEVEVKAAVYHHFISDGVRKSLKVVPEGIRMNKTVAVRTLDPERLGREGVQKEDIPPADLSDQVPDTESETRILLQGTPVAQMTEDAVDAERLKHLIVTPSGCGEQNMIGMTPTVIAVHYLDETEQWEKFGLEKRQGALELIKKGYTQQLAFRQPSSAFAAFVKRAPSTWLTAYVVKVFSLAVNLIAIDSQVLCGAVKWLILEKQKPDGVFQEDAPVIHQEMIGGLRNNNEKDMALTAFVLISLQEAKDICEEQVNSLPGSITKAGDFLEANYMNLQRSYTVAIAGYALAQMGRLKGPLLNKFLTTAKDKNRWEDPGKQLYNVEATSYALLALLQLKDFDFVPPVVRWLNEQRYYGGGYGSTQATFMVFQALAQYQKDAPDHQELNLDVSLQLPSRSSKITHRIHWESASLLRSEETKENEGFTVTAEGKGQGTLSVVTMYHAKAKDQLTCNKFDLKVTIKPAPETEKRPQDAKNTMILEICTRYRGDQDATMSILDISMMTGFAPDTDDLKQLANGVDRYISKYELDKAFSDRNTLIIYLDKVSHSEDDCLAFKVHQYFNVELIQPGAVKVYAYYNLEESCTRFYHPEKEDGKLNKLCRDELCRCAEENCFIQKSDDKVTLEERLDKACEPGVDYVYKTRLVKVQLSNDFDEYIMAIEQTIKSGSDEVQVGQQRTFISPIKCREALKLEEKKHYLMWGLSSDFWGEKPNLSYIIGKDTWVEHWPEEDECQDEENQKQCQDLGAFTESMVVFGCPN

Tests used:
[1] = target: complement receptor 2 (CR2/CD21) on human B cells (human) (UniProt P20023); experiment: flow cytometry on purified human B cells
[2] = target: complement receptor 1 (CR1/CD35) on human B cells (human) (UniProt P17927); experiment: flow cytometry on human B cells
[3] = target: complement receptor 1 (CR1/CD35) on human B cells (human) (UniProt P17927); experiment: flow cytometry on purified human B cells

Substance | binding [1] | binding [2] | binding [3]
C3dg tetramers (recombinant biotinylated C3dg with PE-labeled streptavidin) (from UniProt P01024 955-1303; P22629 37-163) (ligand) | binds | – | –
biot-C3b tetramers (biotinylated human C3b bound to streptavidin) (from UniProt P01024 23-667; P01024 749-1663; P22629 37-163) (ligand) | – | binds | binds
